The text below walks through data of article PMC12621202, “RTx-303, an Orally Bioavailable Polθ Polymerase Inhibitor That Potentiates PARP Inhibitors in BRCA Mutant Tumors” (Journal of Medicinal Chemistry, 2025).

Protein sequences, listed by entry. Tags and fused reporters are not part of them. Lines headed by an entry give the natural chain unless they say otherwise; changes in a name come on top.
UniProt O75417: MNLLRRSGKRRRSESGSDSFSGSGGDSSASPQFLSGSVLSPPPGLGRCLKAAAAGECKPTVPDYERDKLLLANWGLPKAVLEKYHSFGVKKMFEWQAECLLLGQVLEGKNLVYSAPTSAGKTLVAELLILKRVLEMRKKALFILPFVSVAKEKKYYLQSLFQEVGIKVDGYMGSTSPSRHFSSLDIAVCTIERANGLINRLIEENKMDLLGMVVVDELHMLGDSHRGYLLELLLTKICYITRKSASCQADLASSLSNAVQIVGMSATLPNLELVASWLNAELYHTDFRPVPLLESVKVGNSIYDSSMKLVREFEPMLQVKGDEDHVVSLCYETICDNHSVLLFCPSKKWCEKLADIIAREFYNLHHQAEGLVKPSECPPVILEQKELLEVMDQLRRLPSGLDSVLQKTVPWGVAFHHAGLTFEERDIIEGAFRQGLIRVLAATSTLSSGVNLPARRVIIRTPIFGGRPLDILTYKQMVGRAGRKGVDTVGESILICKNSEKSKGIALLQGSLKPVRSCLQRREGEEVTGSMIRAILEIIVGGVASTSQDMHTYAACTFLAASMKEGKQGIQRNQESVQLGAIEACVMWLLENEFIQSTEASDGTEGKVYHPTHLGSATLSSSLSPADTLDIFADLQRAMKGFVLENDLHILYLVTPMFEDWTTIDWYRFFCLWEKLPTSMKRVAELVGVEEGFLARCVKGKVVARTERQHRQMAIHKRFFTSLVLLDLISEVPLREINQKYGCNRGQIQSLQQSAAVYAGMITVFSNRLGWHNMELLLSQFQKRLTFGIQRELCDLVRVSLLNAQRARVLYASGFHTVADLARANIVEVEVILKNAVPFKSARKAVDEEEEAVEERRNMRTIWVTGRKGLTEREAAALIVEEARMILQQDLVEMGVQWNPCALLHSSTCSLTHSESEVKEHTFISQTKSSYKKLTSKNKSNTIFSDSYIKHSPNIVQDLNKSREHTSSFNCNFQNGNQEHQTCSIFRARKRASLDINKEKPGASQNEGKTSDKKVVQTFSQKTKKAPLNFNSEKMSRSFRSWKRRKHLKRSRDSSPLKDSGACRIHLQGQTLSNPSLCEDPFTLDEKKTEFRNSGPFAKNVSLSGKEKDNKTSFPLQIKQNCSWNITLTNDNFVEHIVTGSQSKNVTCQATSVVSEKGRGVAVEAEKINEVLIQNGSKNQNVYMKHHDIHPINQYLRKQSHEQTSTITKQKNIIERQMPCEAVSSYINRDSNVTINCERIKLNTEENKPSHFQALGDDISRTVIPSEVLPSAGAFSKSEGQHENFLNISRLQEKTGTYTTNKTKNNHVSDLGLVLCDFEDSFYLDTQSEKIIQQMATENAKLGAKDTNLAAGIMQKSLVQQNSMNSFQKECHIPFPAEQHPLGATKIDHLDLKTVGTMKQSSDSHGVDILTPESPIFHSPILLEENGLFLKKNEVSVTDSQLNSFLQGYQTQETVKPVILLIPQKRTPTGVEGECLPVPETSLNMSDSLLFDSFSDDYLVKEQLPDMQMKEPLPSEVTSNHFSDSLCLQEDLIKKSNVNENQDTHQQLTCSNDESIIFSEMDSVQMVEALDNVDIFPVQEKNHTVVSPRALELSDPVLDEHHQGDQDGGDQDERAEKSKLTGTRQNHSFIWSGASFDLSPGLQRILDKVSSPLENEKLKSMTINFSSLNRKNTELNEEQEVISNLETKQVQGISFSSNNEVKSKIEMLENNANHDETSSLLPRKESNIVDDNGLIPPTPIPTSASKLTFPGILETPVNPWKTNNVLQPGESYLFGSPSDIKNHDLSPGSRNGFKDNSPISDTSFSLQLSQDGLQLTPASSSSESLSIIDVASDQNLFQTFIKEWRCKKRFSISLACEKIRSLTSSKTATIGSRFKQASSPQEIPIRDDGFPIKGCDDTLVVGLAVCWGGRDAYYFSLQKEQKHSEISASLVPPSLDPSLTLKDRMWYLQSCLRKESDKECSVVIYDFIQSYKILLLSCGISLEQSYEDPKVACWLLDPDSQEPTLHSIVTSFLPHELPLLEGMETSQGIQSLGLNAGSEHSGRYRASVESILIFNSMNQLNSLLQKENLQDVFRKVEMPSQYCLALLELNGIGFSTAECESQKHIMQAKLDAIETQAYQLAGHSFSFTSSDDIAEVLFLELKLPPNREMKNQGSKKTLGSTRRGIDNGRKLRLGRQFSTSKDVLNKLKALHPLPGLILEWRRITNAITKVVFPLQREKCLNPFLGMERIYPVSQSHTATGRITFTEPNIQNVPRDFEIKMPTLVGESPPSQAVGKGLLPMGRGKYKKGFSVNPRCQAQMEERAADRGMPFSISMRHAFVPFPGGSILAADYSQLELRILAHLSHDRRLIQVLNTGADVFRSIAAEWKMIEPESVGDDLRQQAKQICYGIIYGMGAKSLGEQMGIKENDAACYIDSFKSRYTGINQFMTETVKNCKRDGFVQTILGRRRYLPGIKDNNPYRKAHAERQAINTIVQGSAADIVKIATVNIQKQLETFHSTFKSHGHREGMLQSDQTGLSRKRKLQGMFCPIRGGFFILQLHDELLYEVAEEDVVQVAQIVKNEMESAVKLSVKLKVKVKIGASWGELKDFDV

This data set concerns the target PolθΔL (Polθ-pol, five flexible loops replaced by Gly-Ser spacers) (UniProt O75417). As to the kind of experiment: X-ray crystallography. Conditions: ddGTP, Crystallization (hanging drop): 2.5 mg/mL PolθΔL, 50 μM DNA duplex, 170 μM inhibitor, 1 mM ddGTP, 300 μM sucrose monolaurate, 1 mM MgCl2, 20 mM spermine, recombinant protein, protein details: N-terminal 6xHis-SUMO-PreScission, cleaved.

Construct, isoform or probe ends are uncertain for at least one entry.

For the sequence “CGACGTCGCAGCGC / GCGAGACTCCGCGCTGCGACGTCG [primer/template DNA duplex]”, the binding result was “binds” (RTx-161, 1 mM Mg2+, 3.31 Å) and “binds” (RTx-302, 1 mM Mg2+).
